Results as given in PubChem BioAssay AID330 (DTP/NCI, 2004).
The list is a part of this screen's results and no random one: it is rich in T/C values a quarter to a half above the control, in often repeated tests (any T/C) and in doses without a T/C. Further doses and runs are listed elsewhere. T/C is the treated group as % of the vehicle group. Some doses have a count of surviving animals in place of a T/C: the source holds a T/C of zero for them, seemingly a mark for toxic or unscored doses. Some doses without a T/C left all or most animals alive at the check, yet need not have been tolerated: survival well below the control is almost never listed, so the zero probably covers shortened survival too. Counts of survivors are from the toxicity check (mostly the fifth day) where no day follows; animals may have died later. Schedule codes are those of the source, taken here to give the interval after Q, in days (D) or hours (H), and the number of doses after X. Some doses were run more than once; the results are listed from low to high. Where survival is the endpoint, this PubChem deposit counts one and a half times the control or more as active, and values a quarter to a half above the control carry no call in these data; other NCI protocols may use other cut-offs. Some T/C values are followed by the survivors on the day toxicity was checked, most often the fifth; without a count, all were alive then. Marks such as (2×) stand for listed records that agree.

Test system: P388 leukemia ip, CD2F1 mice, survival T/C
Test: NCI In Vivo Anticancer Drug Screen. Data for tumor model P388 Leukemia (intraperitoneal) in CD2F1 (CDF1) mice
Details: T/C endpoint: median survival time, higher T/C = longer survival
[1] = dose: 50.0 mg/kg/injection, schedule: Q01DX001 (ip), vehicle: Klucel (hydroxypropylcellulose) (HPC)

Question: How did the T/C (dose: 12.5 mg/kg/injection, schedule: Q01DX005 (ip), vehicle: Klucel (hydroxypropylcellulose) (HPC), evaluated on day 30) turn out when `CC(CN1CC(=O)NC(=O)C1)N1CC(=O)NC(=O)C1` (stereo not given) was run?
Answer: The T/C was 99, 115, 122 (2×), 126, 127, 128, 129 (2×), 130, 132, 133 (3×), 135, 136, 137, 138, 139 (3×), 142, 143, 144, 145, 147, 153, 155, 159, 171, 183, 256 % of control.

Question: And the T/C (dose: 12.5 mg/kg/injection, schedule: Q01DX005 (ip), vehicle: Klucel (hydroxypropylcellulose) (HPC), evaluated on day 35)?
Answer: The T/C was 161 % of control.

Question: What about the T/C (dose: 12.5 mg/kg/injection, schedule: Q01DX009 (ip), vehicle: Klucel (hydroxypropylcellulose) (HPC), evaluated on day 30) of the same molecule?
Answer: The T/C was 124, 125, 129, 130, 140, 141, 149 (2×), 151, 159, 161, 162, 163, 164 (2×), 165, 168 (2×), 169 [5 of 6 alive], 173, 174, 175, 176 (2×), 177, 180, 191, 202, 204, 227, 239, 267, 294 % of control.

Question: What about the T/C (dose: 12.5 mg/kg/injection, schedule: Q01DX009 (ip), vehicle: Klucel (hydroxypropylcellulose) (HPC), evaluated on day 35) of the same molecule?
Answer: The T/C was 169 and 179 % of control.

Question: What about the T/C (dose: 18.75 mg/kg/injection, schedule: Q04DX002 (ip), vehicle: Klucel (hydroxypropylcellulose) (HPC)) of the same molecule?
Answer: Its T/C is 141 % of control.

Question: What about the T/C (dose: 25.0 mg/kg/injection, schedule: Q01DX005 (ip), vehicle: Klucel (hydroxypropylcellulose) (HPC), evaluated on day 30) of the same molecule?
Answer: The T/C was 99, 123 [2 of 3 alive], 128, 130, 132 (3×), 139, 140, 141 (3×), 142 (2×), 142 [2 of 3 alive], 144 (2×), 147 (2×), 148, 152, 153 (2×), 154 (2×), 156, 157, 159, 161, 163 (2×), 176 % of control.

Question: And the T/C (dose: 25.0 mg/kg/injection, schedule: Q01DX005 (ip), vehicle: Klucel (hydroxypropylcellulose) (HPC), evaluated on day 35)?
Answer: Its T/C is 149 % of control.

Question: What about the T/C (dose: 25.0 mg/kg/injection, schedule: Q01DX009 (ip), vehicle: Klucel (hydroxypropylcellulose) (HPC), evaluated on day 30) of the same molecule?
Answer: Its T/C is 119, 124, 130, 145, 146, 148, 149, 151, 152, 158 (2×), 158 [5 of 6 alive], 159, 163, 165, 168, 169, 174, 175, 176, 178, 184, 187, 188, 189, 191, 193, 194, 200, 202, 207, 210, 220 % of control [5 of 6 alive].

Question: And the T/C (dose: 25.0 mg/kg/injection, schedule: Q01DX009 (ip), vehicle: Klucel (hydroxypropylcellulose) (HPC), evaluated on day 35)?
Answer: The T/C was 117 and 183 % of control.

Question: What about the T/C (dose: 37.5 mg/kg/injection, schedule: Q04DX002 (ip), vehicle: Klucel (hydroxypropylcellulose) (HPC), evaluated on day 30) of the same molecule?
Answer: Its T/C is 105 (2×), 106, 108, 108 [5 of 6 alive], 109 (2×), 111, 112, 115 (2×), 117 (2×), 118 (3×), 119 (5×), 122, 123, 125, 126 (2×), 127, 142, 148, 183 % of control.

Question: What about the T/C (dose: 37.5 mg/kg/injection, schedule: Q04DX002 (ip), vehicle: Klucel (hydroxypropylcellulose) (HPC), evaluated on day 35) of the same molecule?
Answer: Its T/C is 114, 116, 131 % of control.

Question: What about the survivor count (dose: 37.5 mg/kg/injection, schedule: Q04DX002 (ip), vehicle: Klucel (hydroxypropylcellulose) (HPC)) of the same molecule?
Answer: Its survivor count is 2 of 3 and 6 of 6.

Question: And the T/C (dose: 37.5 mg/kg/injection, schedule: Q04DX003 (ip), vehicle: Klucel (hydroxypropylcellulose) (HPC))?
Answer: Its T/C is 106, 112, 116 (3×), 119 (5×), 122, 123, 125 (2×), 126, 128 (4×), 129, 130, 131 (2×), 132, 133, 135, 137, 138, 139, 140 (2×), 147, 153, 266 % of control.

Question: And the T/C [1]?
Answer: The T/C was 97, 105 (2×), 109, 111 (3×), 112 (2×), 113 (4×), 114 (2×), 115 (2×), 116 (2×), 117 (2×), 118 (2×), 119 (3×), 120, 121, 122, 123, 131 % of control.

Question: What about the survivor count [1] of the same molecule?
Answer: Its survivor count is 6 of 6.

Question: And the T/C (dose: 50.0 mg/kg/injection, schedule: Q01DX005 (ip), vehicle: Klucel (hydroxypropylcellulose) (HPC), evaluated on day 30)?
Answer: The T/C was 100, 122, 123, 132, 137, 139, 143, 144, 145, 148, 154 (2×), 155, 156, 159, 161, 162, 163, 165 [1 of 1 alive], 166 (4×), 167, 168, 170, 172, 174, 178, 181, 192, 200 % of control.

Question: And the T/C (dose: 50.0 mg/kg/injection, schedule: Q01DX005 (ip), vehicle: Klucel (hydroxypropylcellulose) (HPC), evaluated on day 35)?
Answer: The T/C was 200 % of control.

Question: And the T/C (dose: 50.0 mg/kg/injection, schedule: Q01DX009 (ip), vehicle: Klucel (hydroxypropylcellulose) (HPC), evaluated on day 30)?
Answer: The T/C was 103, 104, 106, 108, 112, 120, 122 (2×), 123, 133, 136, 137, 138, 157, 159, 160, 165, 166, 168, 169, 172, 179, 184, 185, 190, 193, 200, 205, 209, 215, 219, 225, 261 % of control.

Question: What about the T/C (dose: 50.0 mg/kg/injection, schedule: Q01DX009 (ip), vehicle: Klucel (hydroxypropylcellulose) (HPC), evaluated on day 35) of the same molecule?
Answer: The T/C was 104 % of control.

Question: And the survivor count (dose: 50.0 mg/kg/injection, schedule: Q01DX009 (ip), vehicle: Klucel (hydroxypropylcellulose) (HPC))?
Answer: The survivor count was 3 of 3.

Question: And the T/C (dose: 50.0 mg/kg/injection, schedule: Q04DX002 (ip), vehicle: Klucel (hydroxypropylcellulose) (HPC))?
Answer: The T/C was 131 % of control.

Question: What about the T/C (dose: 64.8 mg/kg/injection, schedule: Q04DX003 (ip), vehicle: saline) of the same molecule?
Answer: The T/C was 126 % of control.

Question: What about the T/C (dose: 75.0 mg/kg/injection, schedule: Q04DX002 (ip), vehicle: Klucel (hydroxypropylcellulose) (HPC), evaluated on day 30) of the same molecule?
Answer: The T/C was 100, 112 (2×), 116 (2×), 117 (2×), 118 (3×), 120 (2×), 121 (2×), 122 (2×), 125 (2×), 126 (2×), 127 (2×), 128 (3×), 131, 133 (2×), 135 (2×), 139 % of control.

Question: And the T/C (dose: 75.0 mg/kg/injection, schedule: Q04DX002 (ip), vehicle: Klucel (hydroxypropylcellulose) (HPC), evaluated on day 35)?
Answer: The T/C was 111, 121, 131 % of control.

Question: What about the survivor count (dose: 75.0 mg/kg/injection, schedule: Q04DX002 (ip), vehicle: Klucel (hydroxypropylcellulose) (HPC)) of the same molecule?
Answer: Its survivor count is 3 of 3 and 6 of 6.
